Results are given in words; binding and its absence hold for the method and conditions named. In cells and extracts the contact can be indirect. Binding can be weak; no strength is given. Tags and fused reporters may be left off the sequences shown.
Biological target: T1, Flag-API5 (apoptosis inhibitor 5) (Gallus (chicken)) (UniProt Q5ZMW3)
T1 sequence: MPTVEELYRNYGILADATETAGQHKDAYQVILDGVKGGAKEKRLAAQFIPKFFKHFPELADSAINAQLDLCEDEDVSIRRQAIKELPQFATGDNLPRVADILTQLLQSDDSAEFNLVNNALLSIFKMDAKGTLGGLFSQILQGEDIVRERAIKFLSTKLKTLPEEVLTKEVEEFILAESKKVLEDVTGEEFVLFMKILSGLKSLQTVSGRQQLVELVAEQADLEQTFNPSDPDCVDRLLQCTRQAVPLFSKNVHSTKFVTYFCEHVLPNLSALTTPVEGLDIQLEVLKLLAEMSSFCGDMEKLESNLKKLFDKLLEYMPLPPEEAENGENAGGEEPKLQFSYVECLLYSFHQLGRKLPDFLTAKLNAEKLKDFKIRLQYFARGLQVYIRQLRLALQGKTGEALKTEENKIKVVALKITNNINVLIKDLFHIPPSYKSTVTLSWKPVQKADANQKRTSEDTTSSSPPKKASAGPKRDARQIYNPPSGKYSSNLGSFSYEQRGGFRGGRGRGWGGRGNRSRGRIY
Experiment: co-IP; HEK293T cells cotransfected for 48 h, lysed in NP-40 buffer; precipitated with anti-Flag, anti-Myc or anti-GFP mouse MAb and protein A/G agarose at 4°C; Western blot

Row | Substance | binding
1 | Myc-VP3ΔCC2 (infectious bursal disease virus (IBDV)) (domain or fragment) | binds
2 | Myc-VP3ΔCC1 (infectious bursal disease virus (IBDV)) (domain or fragment) | binds

— paper PMC8406308
